Assay results published in US20230272390A1, “COMPOSITIONS AND METHODS FOR HEMOGLOBIN PRODUCTION” (THE CHILDREN'S HOSPITAL OF PHILADELPHIA, priority 2020, published 2023).
Where cells or extracts were used, other partners may take part. Protein sequences can lack the tags named with them.

Assays:
[1] = molecular target: T1, ZNF410 ZF1-5 (Homo sapiens) (UniProt Q86VK4); assay: EMSA; conditions: supershift with anti-FLAG, protein in a lysate after overexpression, protein details: FLAG (pcDNA3, COS-7 nuclear extract), label: 32P
T1 sequence: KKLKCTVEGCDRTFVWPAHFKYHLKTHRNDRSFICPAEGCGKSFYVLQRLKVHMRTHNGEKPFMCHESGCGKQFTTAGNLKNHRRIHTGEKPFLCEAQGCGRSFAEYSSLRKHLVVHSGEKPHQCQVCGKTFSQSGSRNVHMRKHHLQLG

[2] = molecular target: T2, ZNF410 full length (Homo sapiens) (UniProt Q86VK4); assay: EMSA; conditions: supershift with anti-FLAG, protein in a lysate after overexpression, protein details: N-terminal FLAG (pcDNA3, COS-7 nuclear extract), label: 32P
T2 sequence: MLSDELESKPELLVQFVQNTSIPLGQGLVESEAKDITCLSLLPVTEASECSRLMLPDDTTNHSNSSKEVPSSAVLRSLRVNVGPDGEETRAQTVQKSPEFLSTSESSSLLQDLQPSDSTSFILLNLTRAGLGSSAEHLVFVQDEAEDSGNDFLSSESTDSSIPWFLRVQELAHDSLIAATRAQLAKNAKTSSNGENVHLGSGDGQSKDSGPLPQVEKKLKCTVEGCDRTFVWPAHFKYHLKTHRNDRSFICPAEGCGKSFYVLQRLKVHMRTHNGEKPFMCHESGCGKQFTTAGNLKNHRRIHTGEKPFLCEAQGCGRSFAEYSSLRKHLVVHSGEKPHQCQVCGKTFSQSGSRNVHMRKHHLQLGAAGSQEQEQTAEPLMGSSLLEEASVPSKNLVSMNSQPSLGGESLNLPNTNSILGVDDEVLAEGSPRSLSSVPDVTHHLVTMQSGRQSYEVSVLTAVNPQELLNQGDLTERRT

GCCTCACCAACCCATAATATTCCCCAGTCT (double strand) [CHD4 EMSA probe 4]
binding result [1]: binds | binding result [2]: binds

GCCTCATATCCCATAATATTCAGCCCCAT (double strand) [CHD4 EMSA probe 1]
binding result ([1]; similar intensity over four probes): binds | binding result ([2]; comparable over four probes): binds

ACACACGACATCCCATAATATCTTCTGGAG (double strand) [CHD4 EMSA probe 3]
binding result [1]: binds | binding result [2]: binds

GAGCCAGGCATCCCATAATATTCATATTCT (double strand) [CHD4 EMSA probe 2]
binding result [1]: binds | binding result [2]: binds
